Experimental findings from article PMC10259659 are described below.

Chains of the proteins cited; added tags and fusions are not shown. Lines headed by an entry give the natural chain unless they say otherwise; changes in a name come on top.
UniProt Q8IU00: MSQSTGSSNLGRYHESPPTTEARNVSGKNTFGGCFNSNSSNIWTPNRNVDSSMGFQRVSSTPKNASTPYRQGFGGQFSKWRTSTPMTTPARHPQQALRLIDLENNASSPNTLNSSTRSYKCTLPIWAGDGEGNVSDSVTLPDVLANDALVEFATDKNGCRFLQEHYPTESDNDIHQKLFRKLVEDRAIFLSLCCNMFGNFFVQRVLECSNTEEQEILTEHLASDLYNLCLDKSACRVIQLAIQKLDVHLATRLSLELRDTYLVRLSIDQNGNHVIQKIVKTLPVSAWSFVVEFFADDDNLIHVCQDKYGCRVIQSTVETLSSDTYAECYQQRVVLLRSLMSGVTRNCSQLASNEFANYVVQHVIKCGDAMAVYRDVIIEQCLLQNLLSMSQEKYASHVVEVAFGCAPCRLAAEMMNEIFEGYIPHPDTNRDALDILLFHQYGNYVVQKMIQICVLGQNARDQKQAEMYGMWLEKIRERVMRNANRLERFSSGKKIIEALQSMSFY

No constants are given. Whether binding was seen depends on the method and setting. In cells and extracts the contact can be indirect. For part of these data: Binding calls can cover weak binding; strength is not graded here. Tags and fused reporters may be left off the sequences shown.

The target in one assay is T1, LST-1^FLAG (C. elegans) (UniProt P91820).
T1 sequence: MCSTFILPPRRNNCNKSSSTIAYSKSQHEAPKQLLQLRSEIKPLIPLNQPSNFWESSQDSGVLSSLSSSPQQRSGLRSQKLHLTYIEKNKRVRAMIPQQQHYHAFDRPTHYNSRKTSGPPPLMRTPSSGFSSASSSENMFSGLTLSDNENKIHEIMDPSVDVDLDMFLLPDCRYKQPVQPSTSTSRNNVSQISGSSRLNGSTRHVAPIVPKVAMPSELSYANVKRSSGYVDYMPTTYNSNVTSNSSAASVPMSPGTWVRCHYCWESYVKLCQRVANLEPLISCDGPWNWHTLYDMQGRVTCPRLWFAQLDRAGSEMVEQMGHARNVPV
The assay is described as follows: co-IP; whole worms (glp-1(gf ts) adults with germline tumors, at least 10^6), cross-linked with 1% formaldehyde; lysis buffer with 1 M urea; epitope-tagged LST-1 immunoprecipitated with anti-V5 or anti-FLAG on protein G Dynabeads, 4 h at 4°C with RNase A 10 μg/ml; washes up to 0.5 M NaCl; western blot.

For assay [1], the target named is LST-1(A^mB^m)^V5 (PIM-defective LST-1 mutant with 3xV5 epitope tag) (C. elegans) (UniProt P91820). The assay is described as above.

PUF-8 (epitope-tagged) (C. elegans): the binding result with LST-1^FLAG (C. elegans) is listed as “no binding”.
On the same count and under the same terms, under “PUF-11 (epitope-tagged) (from UniProt Q8IU00)” stands “binds”.

B1: FBF-1^FLAG (protein, UniProt Q9N5M6 1-614)
chain: MDQSKMRYTNQFRKTPQKPTSTEVGNHHTPAHSPMAQHETSMWNFNSLNPYFSMLNMNDGMNYARHQQNHIVTSRPPTPLTDLMSLRSFQSFPNVFMPVSRSRTSSFIQSDTDSSRLEPDDFSQNVRYCSTEIDRNNSSSKNDHLKYSRPALSRNSRSFTRSNNVLPTWSLDSNGEMRSRLSLSEVLDSGDLMKFAVDKTGCQFLEKAVKGSLTSYQKFQLFEQVIGRKDDFLKLSTNIFGNYFVQEIIGMSLTTYDDDNIKRQEKLKNFISSQMTDMCLDKFACRVIQSSLQNMDLSLACKLVQALPRDARLIAICVDQNANHVIQKVVAVIPLKNWEFIVDFVATPEHLRQICFDKYGCRVVQTIIEKLTADSINVDLTSAAQHLRERALQRLMTSVTNRCQELATNEYANYIIQHIVSNDDLAVYRECIIEKCLMRNLLSLSQEKFASHVVEKAFLHAPMELLAEMMDEIFDGYMPHPGTGKDALDIMMFHQFGNYVVQCMLTICCDAVSGRRQTKEGSYDHANSFQVWLKKLHSRVTKERHRLSRFSSGKKMIETLAHLRSTHPIYGLQSSGHESFKTDCFSTASEHDGLELEKNGIEEGNLRLMRTFSP
On to B1, for which, in assay [1], the binding result is reported as “no binding”.
